Experimental data from article PMC7948952, “Structural basis for multifunctional roles of human Ints3 C-terminal domain” (The Journal of Biological Chemistry, 2020).
No constants are given. Whether binding was seen depends on the method and setting. For some of these results: Binding seen in cells or lysates may run through a third protein. Some entries that bind do so weakly or less than the wild type.

Protein sequences, listed by entry. Tags and fused reporters are not part of them. Lines headed by an entry give the natural chain unless they say otherwise; changes in a name come on top. Chains listed by the source or under a name are the forms on record and can include a tag or linker. Residues count along the entry.
Ints3-555-976 in pRSFDuet-1 (His-tagged), coexpressed with GST-Ints6-807-887 (Q68E01, residues 556-977): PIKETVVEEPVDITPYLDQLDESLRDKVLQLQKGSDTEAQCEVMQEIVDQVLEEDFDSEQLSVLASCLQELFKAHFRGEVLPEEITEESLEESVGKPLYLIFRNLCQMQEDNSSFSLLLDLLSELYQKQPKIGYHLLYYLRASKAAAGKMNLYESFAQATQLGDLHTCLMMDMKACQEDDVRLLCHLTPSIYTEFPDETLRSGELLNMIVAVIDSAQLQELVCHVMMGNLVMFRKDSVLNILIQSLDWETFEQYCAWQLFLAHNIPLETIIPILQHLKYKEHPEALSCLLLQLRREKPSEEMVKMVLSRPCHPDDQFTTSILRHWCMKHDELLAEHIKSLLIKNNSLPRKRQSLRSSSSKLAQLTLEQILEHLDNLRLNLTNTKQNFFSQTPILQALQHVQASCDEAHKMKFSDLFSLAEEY
Ints3-555-899 in pRSFDuet-1 (His-tagged), coexpressed with GST-Ints6-807-887 (Q68E01, residues 556-900): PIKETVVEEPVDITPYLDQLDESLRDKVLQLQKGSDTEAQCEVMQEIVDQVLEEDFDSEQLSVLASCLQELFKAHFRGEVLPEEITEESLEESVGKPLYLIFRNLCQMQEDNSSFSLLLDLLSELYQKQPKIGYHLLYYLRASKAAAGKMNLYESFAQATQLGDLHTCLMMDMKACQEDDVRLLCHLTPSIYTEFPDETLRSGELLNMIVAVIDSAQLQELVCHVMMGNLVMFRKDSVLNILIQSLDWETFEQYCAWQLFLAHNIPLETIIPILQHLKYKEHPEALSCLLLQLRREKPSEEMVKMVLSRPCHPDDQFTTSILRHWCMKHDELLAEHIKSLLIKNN
GST-tagged Ints3-555-976 M780A/M781A (coexpression with MBP-Ints6-807-887) (Q68E01-2, form named): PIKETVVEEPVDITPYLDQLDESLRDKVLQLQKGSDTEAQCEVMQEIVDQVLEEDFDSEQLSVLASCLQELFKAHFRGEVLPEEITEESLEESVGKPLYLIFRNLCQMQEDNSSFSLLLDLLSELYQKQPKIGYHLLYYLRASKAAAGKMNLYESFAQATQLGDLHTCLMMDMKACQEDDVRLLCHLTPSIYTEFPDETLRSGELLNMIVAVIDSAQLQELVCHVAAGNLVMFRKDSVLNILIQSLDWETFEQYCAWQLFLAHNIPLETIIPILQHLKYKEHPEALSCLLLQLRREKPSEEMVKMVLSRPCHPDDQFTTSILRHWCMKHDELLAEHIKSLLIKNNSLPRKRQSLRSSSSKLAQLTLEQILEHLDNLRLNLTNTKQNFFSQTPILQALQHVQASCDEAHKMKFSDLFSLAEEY
GST-tagged Ints3-555-976 R877E (coexpression with MBP-Ints6-807-887) (Q68E01-2, form named): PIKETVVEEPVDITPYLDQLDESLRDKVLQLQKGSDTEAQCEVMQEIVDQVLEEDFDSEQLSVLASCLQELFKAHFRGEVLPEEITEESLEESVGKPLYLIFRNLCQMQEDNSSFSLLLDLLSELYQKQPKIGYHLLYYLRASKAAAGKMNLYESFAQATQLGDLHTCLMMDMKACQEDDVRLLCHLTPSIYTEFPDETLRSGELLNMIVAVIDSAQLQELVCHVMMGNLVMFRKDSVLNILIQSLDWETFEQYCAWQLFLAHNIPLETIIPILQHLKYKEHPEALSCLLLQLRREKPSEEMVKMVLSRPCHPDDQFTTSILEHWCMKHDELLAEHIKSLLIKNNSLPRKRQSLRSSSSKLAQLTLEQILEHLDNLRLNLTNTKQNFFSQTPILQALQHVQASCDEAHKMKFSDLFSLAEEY
GST-tagged Ints3-555-976 R877E/K882E (coexpression with MBP-Ints6-807-887) (Q68E01-2, form named): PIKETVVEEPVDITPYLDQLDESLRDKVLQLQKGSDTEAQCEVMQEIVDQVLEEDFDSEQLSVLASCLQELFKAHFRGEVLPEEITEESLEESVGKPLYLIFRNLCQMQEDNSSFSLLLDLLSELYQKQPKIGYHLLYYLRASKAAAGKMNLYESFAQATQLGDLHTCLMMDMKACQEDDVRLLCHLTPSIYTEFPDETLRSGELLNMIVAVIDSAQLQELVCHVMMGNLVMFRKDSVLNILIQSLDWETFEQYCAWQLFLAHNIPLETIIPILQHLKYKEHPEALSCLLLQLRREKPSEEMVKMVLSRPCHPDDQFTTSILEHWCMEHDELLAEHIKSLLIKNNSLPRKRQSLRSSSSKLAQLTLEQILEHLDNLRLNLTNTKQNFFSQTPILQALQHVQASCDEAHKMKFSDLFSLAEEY
Flag-tagged full-length Ints3, wild type (Q68E01-2, form named): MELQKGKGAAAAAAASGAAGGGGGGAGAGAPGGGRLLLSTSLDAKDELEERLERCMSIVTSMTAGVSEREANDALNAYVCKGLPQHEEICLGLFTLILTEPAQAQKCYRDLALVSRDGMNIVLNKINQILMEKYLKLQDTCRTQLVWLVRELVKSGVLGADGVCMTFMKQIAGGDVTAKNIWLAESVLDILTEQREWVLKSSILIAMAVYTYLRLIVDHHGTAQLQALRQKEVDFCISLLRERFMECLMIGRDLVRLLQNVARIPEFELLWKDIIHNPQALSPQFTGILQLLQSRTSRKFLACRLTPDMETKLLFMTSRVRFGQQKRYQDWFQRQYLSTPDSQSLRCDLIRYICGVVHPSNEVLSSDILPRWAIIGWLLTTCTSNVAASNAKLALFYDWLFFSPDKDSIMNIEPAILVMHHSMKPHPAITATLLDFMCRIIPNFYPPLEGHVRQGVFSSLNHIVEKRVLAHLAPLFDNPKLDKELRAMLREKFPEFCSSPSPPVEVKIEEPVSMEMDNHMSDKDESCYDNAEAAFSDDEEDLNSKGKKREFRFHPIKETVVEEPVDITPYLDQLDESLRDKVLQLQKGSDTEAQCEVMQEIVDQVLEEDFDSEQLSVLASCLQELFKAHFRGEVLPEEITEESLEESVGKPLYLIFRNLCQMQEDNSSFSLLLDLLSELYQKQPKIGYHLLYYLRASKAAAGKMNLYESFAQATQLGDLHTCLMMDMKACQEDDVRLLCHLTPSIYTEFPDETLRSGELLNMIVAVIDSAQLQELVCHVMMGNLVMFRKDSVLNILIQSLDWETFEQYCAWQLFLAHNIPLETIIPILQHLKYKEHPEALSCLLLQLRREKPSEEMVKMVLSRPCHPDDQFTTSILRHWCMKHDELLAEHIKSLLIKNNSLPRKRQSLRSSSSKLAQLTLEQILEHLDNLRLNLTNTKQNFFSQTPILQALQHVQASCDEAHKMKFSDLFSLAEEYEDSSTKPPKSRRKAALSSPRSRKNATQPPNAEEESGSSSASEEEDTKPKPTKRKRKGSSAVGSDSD
GST-tagged Ints3-555-976 D768A/Q771A (Q68E01-2, form named): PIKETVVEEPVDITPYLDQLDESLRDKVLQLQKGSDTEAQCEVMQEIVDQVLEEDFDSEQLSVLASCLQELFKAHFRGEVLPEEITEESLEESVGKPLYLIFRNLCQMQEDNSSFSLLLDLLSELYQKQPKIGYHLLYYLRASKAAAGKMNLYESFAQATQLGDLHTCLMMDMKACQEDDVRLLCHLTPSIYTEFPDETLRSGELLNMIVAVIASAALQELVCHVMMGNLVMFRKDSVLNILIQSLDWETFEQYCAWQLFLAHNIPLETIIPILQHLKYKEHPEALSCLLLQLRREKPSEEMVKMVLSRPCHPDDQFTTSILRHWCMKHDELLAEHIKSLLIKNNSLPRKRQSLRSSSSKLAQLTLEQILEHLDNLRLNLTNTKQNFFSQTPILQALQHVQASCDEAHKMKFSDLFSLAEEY

Assays:
GST-tagged Ints6-807-887 = GST-tagged Ints6-807-887 (UniProt Q9UL03); experiment: pull-down; coexpression in E. coli BL21-CodonPlus (DE3)-RIPL of Ints3 (pRSFDuet-1) and GST-tagged Ints6-807-887 (pGEX-6p-1); complex retrieved by GST-tagged Ints6-807-887 and copurified
[1] = molecular target: Ints3-555-976 M780A/M781A (human) (UniProt Q68E01); experiment: SEC; Superdex 200 Increase 10/300 Gl, 100 μl of approximately 2 mg/ml, 0.5 ml/min; wild-type and mutant Ints3-555-976; both purified
[2] = molecular target: Ints3-555-976 R877E (human) (UniProt Q68E01); experiment: as above
[3] = molecular target: Ints3-555-976 R877E/K882E (human) (UniProt Q68E01); experiment: as above
[4] = molecular target: Flag-tagged full-length Ints3, wild type (human) (UniProt Q68E01); experiment: co-IP; HEK 293T transfected with Flag-tagged Ints3 and V5-tagged Ints6 full-length constructs; IP with anti-Flag M2 agarose (V5 blot) or anti-V5 agarose (Flag blot); 20 mM Hepes pH 7.9, 300 mM NaCl, 0.4% Nonidet P-40
[5] = molecular target: GST-tagged Ints3-555-976 R877E/K882E (coexpression with MBP-Ints6-807-887) (human) (UniProt Q68E01); experiment: pull-down; coexpression in E. coli of GST-tagged Ints3 constructs (pGEX-6p-1) and MBP-Ints6-807-887 (pRSFDuet-1), GST or MBP pull-down ('coexpression and reverse pull-down')
[6] = molecular target: GST-tagged Ints3-555-976 R877E (coexpression with MBP-Ints6-807-887) (human) (UniProt Q68E01); experiment: as above
[7] = molecular target: GST-tagged Ints3-555-976 M780A/M781A (coexpression with MBP-Ints6-807-887) (human) (UniProt Q68E01); experiment: as above
[8] = molecular target: GST-tagged Ints3-555-976 D768A/Q771A (human) (UniProt Q68E01); experiment: as above

Ints3-555-899 in pRSFDuet-1 (His-tagged), coexpressed with GST-Ints6-807-887 (from UniProt Q68E01-2 555-899) (domain or fragment)
binding (GST-tagged Ints6-807-887): binds

Ints3-555-976 M780A/M781A (from UniProt Q68E01-2 555-976) (domain or fragment)
binding [1]: binds weakly

Ints3-555-976 R877E (from UniProt Q68E01-2 555-976) (domain or fragment)
binding [2]: binds weakly

Ints3-555-976 R877E/K882E (from UniProt Q68E01-2 555-976) (domain or fragment)
binding [3]: binds weakly

Ints3-555-976 in pRSFDuet-1 (His-tagged), coexpressed with GST-Ints6-807-887 (from UniProt Q68E01-2 555-976) (domain or fragment)
binding (GST-tagged Ints6-807-887): binds

V5-tagged full-length Ints6 (from UniProt Q9UL03 1-887)
binding [4]: binds

B1: MBP-Ints6-807-887 (domain or fragment, UniProt Q9UL03 807-887, looked up)
chain: EVNTELKAQIMKEIRKPGRKYERIFTLLKHVQGSLQTRLIFLQNVIKEASRFKKRMLIEQLENFLDEIHRRANQINHINSN
notes: Integrator complex subunit 6 (Ints6, DDX26a), residues 807-887; cDNA from DNAsu; Made in a modified pMal-c2X vector: an AAAEF linker and no protease site stand between MBP and Ints6-807-887; the MBP-Ints6-807-887 region was then cloned into pRSFDuet-1; also called MBP-tagged Ints6-807-887; source: E. coli BL21-CodonPlus (DE3)-RIPL, purified (amylose resin, HiTrap Q); also coexpressed with …
binding [5]: binds
binding [6]: binds
binding [7]: binds
binding [8]: binds
